Measurements: paper PMC7177724
Results are given in words; binding and its absence hold for the method and conditions named. In cells and extracts the contact can be indirect. A yes stands for co-enrichment or nearness to the bait. Other partners may have been found.

By UniProt entry, the sequences of proteins in these tests, tags left out.
UniProt P26196: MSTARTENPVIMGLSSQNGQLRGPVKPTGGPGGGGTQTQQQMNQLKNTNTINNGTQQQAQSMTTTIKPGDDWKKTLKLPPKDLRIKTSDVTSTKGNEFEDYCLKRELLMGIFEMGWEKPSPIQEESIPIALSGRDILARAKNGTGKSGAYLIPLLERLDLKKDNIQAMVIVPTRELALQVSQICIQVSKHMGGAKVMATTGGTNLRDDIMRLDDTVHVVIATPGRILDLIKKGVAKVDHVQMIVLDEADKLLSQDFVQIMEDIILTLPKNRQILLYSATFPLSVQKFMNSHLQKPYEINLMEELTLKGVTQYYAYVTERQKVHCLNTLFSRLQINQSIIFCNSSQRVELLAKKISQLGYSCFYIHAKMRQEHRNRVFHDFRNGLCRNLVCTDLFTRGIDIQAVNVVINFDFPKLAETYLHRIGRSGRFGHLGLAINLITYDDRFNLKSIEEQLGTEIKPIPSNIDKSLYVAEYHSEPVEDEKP
UniProt O95793: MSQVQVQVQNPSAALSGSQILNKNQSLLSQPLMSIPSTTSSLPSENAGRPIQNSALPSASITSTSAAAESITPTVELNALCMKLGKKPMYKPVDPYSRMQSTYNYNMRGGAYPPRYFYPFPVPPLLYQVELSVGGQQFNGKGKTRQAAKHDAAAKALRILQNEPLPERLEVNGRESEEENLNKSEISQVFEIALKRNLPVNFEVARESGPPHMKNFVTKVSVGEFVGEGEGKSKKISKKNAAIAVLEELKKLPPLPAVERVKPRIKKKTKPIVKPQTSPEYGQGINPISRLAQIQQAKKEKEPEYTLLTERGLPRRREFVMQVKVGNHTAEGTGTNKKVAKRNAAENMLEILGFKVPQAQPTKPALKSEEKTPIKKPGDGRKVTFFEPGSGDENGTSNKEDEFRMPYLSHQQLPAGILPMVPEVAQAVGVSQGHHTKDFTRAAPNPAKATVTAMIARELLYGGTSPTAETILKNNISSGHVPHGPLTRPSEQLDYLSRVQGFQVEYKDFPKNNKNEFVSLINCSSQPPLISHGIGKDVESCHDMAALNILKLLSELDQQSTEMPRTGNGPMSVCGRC
UniProt Q8WUY3: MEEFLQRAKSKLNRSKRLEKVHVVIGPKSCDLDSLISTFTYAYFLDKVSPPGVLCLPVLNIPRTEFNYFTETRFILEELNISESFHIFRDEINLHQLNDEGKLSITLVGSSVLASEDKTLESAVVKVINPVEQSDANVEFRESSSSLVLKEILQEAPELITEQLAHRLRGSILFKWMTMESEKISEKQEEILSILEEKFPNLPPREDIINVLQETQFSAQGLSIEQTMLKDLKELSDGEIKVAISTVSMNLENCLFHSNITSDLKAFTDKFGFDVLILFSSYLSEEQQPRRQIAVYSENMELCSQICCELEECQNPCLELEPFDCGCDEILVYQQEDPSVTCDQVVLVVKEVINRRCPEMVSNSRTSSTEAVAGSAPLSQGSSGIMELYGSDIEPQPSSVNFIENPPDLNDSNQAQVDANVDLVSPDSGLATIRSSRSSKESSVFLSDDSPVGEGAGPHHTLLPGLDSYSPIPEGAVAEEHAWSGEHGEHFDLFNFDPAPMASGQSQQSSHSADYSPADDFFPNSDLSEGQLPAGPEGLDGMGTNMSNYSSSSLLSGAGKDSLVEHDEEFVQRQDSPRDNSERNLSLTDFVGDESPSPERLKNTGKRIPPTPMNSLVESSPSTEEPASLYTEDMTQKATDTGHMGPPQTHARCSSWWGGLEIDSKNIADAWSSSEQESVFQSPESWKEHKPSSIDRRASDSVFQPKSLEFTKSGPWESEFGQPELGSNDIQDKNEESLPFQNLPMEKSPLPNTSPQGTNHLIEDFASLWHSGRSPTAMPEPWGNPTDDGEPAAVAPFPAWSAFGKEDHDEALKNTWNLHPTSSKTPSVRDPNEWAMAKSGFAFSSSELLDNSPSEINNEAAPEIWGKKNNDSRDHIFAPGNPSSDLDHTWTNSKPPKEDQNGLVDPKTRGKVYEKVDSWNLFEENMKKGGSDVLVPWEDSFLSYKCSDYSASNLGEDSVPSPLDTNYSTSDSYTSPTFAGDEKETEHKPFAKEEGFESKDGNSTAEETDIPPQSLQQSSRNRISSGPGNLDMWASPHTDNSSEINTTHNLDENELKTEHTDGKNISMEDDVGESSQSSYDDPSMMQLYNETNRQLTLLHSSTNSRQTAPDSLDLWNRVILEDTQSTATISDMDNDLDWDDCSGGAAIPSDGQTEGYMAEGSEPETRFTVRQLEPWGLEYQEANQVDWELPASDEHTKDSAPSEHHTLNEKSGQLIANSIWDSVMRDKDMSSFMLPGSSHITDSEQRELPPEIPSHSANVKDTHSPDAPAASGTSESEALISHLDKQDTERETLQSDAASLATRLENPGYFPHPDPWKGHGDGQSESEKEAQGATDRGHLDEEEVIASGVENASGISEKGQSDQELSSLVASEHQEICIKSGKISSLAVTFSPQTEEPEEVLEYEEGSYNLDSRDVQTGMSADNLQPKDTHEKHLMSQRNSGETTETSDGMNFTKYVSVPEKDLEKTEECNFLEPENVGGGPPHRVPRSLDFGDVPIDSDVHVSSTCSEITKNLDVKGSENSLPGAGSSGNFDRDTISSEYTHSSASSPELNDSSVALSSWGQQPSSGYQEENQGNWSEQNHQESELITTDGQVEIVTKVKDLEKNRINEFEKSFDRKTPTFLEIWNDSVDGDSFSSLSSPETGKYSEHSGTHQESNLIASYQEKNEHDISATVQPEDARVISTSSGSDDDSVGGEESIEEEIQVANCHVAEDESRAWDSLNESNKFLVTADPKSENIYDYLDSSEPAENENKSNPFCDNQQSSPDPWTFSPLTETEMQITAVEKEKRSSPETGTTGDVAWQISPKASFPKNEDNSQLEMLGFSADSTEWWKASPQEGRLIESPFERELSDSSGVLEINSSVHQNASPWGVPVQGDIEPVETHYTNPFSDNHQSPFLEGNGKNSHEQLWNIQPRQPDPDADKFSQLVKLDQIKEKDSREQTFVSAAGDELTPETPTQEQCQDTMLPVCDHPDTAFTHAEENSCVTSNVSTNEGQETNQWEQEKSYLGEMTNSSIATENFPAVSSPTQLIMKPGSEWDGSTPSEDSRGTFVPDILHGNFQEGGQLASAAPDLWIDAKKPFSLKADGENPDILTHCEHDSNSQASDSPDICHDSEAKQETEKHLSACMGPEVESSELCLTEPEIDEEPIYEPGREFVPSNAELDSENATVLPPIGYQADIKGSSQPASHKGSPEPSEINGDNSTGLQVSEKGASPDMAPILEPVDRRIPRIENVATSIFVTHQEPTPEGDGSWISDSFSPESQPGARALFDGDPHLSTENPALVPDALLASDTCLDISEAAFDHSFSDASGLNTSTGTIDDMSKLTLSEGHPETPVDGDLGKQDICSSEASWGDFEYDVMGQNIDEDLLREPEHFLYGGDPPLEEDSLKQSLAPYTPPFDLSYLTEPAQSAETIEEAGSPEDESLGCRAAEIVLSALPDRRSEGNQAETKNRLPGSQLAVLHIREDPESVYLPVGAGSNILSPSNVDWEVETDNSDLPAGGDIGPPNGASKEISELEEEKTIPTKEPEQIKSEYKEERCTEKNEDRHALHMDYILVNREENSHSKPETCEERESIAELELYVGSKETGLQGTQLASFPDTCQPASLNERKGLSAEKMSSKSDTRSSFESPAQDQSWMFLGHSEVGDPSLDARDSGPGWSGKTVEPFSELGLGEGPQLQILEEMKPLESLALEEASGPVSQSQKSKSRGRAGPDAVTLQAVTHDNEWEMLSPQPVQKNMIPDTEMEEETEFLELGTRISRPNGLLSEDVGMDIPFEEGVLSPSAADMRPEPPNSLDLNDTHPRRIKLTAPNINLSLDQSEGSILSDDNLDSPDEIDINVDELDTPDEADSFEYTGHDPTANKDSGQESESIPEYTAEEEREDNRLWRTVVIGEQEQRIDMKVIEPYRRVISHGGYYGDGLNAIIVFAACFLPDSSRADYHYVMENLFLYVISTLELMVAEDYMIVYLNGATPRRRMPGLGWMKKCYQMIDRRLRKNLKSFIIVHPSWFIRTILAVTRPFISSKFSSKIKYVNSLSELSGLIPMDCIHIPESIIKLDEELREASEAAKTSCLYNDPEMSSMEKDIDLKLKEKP
UniProt Q9Y6M1: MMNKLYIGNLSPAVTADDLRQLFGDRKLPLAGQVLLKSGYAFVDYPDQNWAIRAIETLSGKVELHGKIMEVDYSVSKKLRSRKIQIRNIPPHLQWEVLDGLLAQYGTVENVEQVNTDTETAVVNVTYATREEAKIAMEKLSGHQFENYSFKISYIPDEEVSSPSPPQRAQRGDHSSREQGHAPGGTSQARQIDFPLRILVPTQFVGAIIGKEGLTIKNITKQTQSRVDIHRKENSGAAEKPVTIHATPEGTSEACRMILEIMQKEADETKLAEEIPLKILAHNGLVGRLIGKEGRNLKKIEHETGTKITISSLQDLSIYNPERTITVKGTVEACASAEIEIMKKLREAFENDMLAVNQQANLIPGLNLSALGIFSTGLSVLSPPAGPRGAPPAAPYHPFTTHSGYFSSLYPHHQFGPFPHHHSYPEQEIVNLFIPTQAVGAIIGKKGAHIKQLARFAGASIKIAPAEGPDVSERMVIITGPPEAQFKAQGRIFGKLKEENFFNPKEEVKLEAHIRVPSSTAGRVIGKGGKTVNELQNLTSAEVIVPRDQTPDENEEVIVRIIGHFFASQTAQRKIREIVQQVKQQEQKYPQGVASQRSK
UniProt Q15717: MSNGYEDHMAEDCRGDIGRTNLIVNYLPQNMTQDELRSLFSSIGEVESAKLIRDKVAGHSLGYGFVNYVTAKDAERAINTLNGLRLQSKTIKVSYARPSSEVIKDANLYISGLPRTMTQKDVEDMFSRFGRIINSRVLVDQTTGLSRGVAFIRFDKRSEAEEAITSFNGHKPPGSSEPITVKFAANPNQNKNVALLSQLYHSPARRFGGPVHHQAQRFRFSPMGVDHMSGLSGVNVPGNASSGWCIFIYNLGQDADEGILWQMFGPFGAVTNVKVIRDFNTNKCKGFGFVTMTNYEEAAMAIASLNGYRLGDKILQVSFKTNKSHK
UniProt Q14764: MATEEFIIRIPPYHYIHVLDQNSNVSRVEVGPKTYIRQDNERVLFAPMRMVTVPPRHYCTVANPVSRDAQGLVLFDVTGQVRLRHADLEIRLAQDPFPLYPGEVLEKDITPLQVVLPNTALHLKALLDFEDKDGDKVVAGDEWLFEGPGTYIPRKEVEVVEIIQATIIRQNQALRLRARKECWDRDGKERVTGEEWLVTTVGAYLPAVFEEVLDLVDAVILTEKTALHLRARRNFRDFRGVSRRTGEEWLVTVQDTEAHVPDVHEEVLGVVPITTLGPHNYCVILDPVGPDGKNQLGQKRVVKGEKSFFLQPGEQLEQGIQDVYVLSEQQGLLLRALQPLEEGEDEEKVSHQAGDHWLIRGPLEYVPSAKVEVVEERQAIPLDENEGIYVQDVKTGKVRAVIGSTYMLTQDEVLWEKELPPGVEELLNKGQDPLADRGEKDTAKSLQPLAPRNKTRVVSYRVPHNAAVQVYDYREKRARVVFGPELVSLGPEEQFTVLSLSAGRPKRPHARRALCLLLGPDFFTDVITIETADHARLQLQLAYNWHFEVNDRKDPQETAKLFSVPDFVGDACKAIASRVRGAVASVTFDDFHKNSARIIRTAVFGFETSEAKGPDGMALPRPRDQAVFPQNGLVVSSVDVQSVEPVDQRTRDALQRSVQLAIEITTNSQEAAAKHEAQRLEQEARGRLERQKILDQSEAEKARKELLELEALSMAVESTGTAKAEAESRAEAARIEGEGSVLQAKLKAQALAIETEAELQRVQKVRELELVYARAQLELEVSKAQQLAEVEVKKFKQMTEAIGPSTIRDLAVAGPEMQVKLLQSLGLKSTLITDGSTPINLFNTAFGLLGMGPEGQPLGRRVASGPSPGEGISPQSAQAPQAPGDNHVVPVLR
UniProt Q9BX40: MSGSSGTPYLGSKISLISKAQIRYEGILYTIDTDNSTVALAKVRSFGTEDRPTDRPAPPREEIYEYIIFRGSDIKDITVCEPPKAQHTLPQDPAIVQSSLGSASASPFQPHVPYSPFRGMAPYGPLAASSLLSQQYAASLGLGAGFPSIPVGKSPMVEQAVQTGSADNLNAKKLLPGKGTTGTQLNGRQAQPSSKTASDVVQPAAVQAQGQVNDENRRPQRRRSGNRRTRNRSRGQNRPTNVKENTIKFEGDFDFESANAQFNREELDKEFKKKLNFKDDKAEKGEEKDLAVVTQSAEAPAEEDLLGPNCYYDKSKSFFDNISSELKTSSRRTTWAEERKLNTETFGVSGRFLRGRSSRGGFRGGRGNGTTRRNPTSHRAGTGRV

B1: DDX1 (protein, UniProt Q92499 1-740)
chain: MAAFSEMGVMPEIAQAVEEMDWLLPTDIQAESIPLILGGGDVLMAAETGSGKTGAFSIPVIQIVYETLKDQQEGKKGKTTIKTGASVLNKWQMNPYDRGSAFAIGSDGLCCQSREVKEWHGCRATKGLMKGKHYYEVSCHDQGLCRVGWSTMQASLDLGTDKFGFGFGGTGKKSHNKQFDNYGEEFTMHDTIGCYLDIDKGHVKFSKNGKDLGLAFEIPPHMKNQALFPACVLKNAELKFNFGEEEFKFPPKDGFVALSKAPDGYIVKSQHSGNAQVTQTKFLPNAPKALIVEPSRELAEQTLNNIKQFKKYIDNPKLRELLIIGGVAARDQLSVLENGVDIVVGTPGRLDDLVSTGKLNLSQVRFLVLDEADGLLSQGYSDFINRMHNQIPQVTSDGKRLQVIVCSATLHSFDVKKLSEKIMHFPTWVDLKGEDSVPDTVHHVVVPVNPKTDRLWERLGKSHIRTDDVHAKDNTRPGANSPEMWSEAIKILKGEYAVRAIKEHKMDQAIIFCRTKIDCDNLEQYFIQQGGGPDKKGHQFSCVCLHGDRKPHERKQNLERFKKGDVRFLICTDVAARGIDIHGVPYVINVTLPDEKQNYVHRIGRVGRAERMGLAISLVATEKEKVWYHVCSSRGKGCYNTRLKEDGGCTIWYNEMQLLSEIEEHLNCTISQVEPDIKVPVDEFDGKVTYGQKRAAGGGSYKGHVDILAPTVQELAALEKEAQTSFLHLGYLPNQLFRTF
B2: DCP1B (protein, UniProt Q8IZD4 1-617)
chain: MAAVAAGGLVGKGRDISLAALQRHDPYINRIVDVASQVALYTFGHRANEWEKTDVEGTLFVYTRSASPKHGFTIMNRLSMENRTEPITKDLDFQLQDPFLLYRNARLSIYGIWFYDKEECQRIAELMKNLTQYEQLKAHQGTGAGISPVILNSGEGKEVDILRMLIKAKDEYTKCKTCSEPKKITSSSAIYDNPNLIKPIPVKPSENQQQRIPQPNQTLDPEPQHLSLTALFGKQDKATCQETVEPPQTLHQQQQQQQQQQEKLPIRQGVVRSLSYEEPRRHSPPIEKQLCPAIQKLMVRSADLHPLSELPENRPCENGSTHSAGEFFTGPVQPGSPHNIGTSRGVQNASRTQNLFEKLQSTPGAANKCDPSTPAPASSAALNRSRAPTSVTPVAPGKGLAQPPQAYFNGSLPPQTVGHQAHGREQSTLPRQTLPISGSQTGSSGVISPQELLKKLQIVQQEQQLHASNRPALAAKFPVLAQSSGTGKPLESWINKTPNTEQQTPLFQVISPQRIPATAAPSLLMSPMVFAQPTSVPPKERESGLLPVGGQEPPAAATSLLLPIQSPEPSVITSSPLTKLQLQEALLYLIQNDDNFLNIIYEAYLFSMTQAAMKKTM
B3: UPF1 (protein, UniProt Q92900 1-1129)
chain: MSVEAYGPSSQTLTFLDTEEAELLGADTQGSEFEFTDFTLPSQTQTPPGGPGGPGGGGAGGPGGAGAGAAAGQLDAQVGPEGILQNGAVDDSVAKTSQLLAELNFEEDEEDTYYTKDLPIHACSYCGIHDPACVVYCNTSKKWFCNGRGNTSGSHIVNHLVRAKCKEVTLHKDGPLGETVLECYNCGCRNVFLLGFIPAKADSVVVLLCRQPCASQSSLKDINWDSSQWQPLIQDRCFLSWLVKIPSEQEQLRARQITAQQINKLEELWKENPSATLEDLEKPGVDEEPQHVLLRYEDAYQYQNIFGPLVKLEADYDKKLKESQTQDNITVRWDLGLNKKRIAYFTLPKTDSGNEDLVIIWLRDMRLMQGDEICLRYKGDLAPLWKGIGHVIKVPDNYGDEIAIELRSSVGAPVEVTHNFQVDFVWKSTSFDRMQSALKTFAVDETSVSGYIYHKLLGHEVEDVIIKCQLPKRFTAQGLPDLNHSQVYAVKTVLQRPLSLIQGPPGTGKTVTSATIVYHLARQGNGPVLVCAPSNIAVDQLTEKIHQTGLKVVRLCAKSREAIDSPVSFLALHNQIRNMDSMPELQKLQQLKDETGELSSADEKRYRALKRTAERELLMNADVICCTCVGAGDPRLAKMQFRSILIDESTQATEPECMVPVVLGAKQLILVGDHCQLGPVVMCKKAAKAGLSQSLFERLVVLGIRPIRLQVQYRMHPALSAFPSNIFYEGSLQNGVTAADRVKKGFDFQWPQPDKPMFFYVTQGQEEIASSGTSYLNRTEAANVEKITTKLLKAGAKPDQIGIITPYEGQRSYLVQYMQFSGSLHTKLYQEVEIASVDAFQGREKDFIILSCVRANEHQGIGFLNDPRRLNVALTRARYGVIIVGNPKALSKQPLWNHLLNYYKEQKVLVEGPLNNLRESLMQFSKPRKLVNTINPGARFMTTAMYDAREAIIPGSVYDRSSQGRPSSMYFQTHDQIGMISAGPSHVAAMNIPIPFNLVMPPMPPPGYFGQANGPAAGRGTPKGKTGRGGRQKNRFGLPGPSQTNLPNSQASQDVASQPFSQGALTQGYISMSQPSQMSQPGLSQPELSQDSYLGDEFKSQIDVALSQDSTYQGERAYQHGGVTGLSQY
B4: U2AF1 (protein, UniProt Q01081 1-240)
chain: MAEYLASIFGTEKDKVNCSFYFKIGACRHGDRCSRLHNKPTFSQTIALLNIYRNPQNSSQSADGLRCAVSDVEMQEHYDEFFEEVFTEMEEKYGEVEEMNVCDNLGDHLVGNVYVKFRREEDAEKAVIDLNNRWFNGQPIHAELSPVTDFREACCRQYEMGECTRGGFCNFMHLKPISRELRRELYGRRRKKHRSRSRSRERRSRSRDRGRGGGGGGGGGGGGRERDRRRSRDRERSGRF
B5: MOV10 (protein, UniProt Q9HCE1 1-1003)
chain: MPSKFSCRQLREAGQCFESFLVVRGLDMETDRERLRTIYNRDFKISFGTPAPGFSSMLYGMKIANLAYVTKTRVRFFRLDRWADVRFPEKRRMKLGSDISKHHKSLLAKIFYDRAEYLHGKHGVDVEVQGPHEARDGQLLIRLDLNRKEVLTLRLRNGGTQSVTLTHLFPLCRTPQFAFYNEDQELPCPLGPGECYELHVHCKTSFVGYFPATVLWELLGPGESGSEGAGTFYIARFLAAVAHSPLAAQLKPMTPFKRTRITGNPVVTNRIEEGERPDRAKGYDLELSMALGTYYPPPRLRQLLPMLLQGTSIFTAPKEIAEIKAQLETALKWRNYEVKLRLLLHLEELQMEHDIRHYDLESVPMTWDPVDQNPRLLTLEVPGVTESRPSVLRGDHLFALLSSETHQEDPITYKGFVHKVELDRVKLSFSMSLLSRFVDGLTFKVNFTFNRQPLRVQHRALELTGRWLLWPMLFPVAPRDVPLLPSDVKLKLYDRSLESNPEQLQAMRHIVTGTTRPAPYIIFGPPGTGKTVTLVEAIKQVVKHLPKAHILACAPSNSGADLLCQRLRVHLPSSIYRLLAPSRDIRMVPEDIKPCCNWDAKKGEYVFPAKKKLQEYRVLITTLITAGRLVSAQFPIDHFTHIFIDEAGHCMEPESLVAIAGLMEVKETGDPGGQLVLAGDPRQLGPVLRSPLTQKHGLGYSLLERLLTYNSLYKKGPDGYDPQFITKLLRNYRSHPTILDIPNQLYYEGELQACADVVDRERFCRWAGLPRQGFPIIFHGVMGKDEREGNSPSFFNPEEAATVTSYLKLLLAPSSKKGKARLSPRSVGVISPYRKQVEKIRYCITKLDRELRGLDDIKDLKVGSVEEFQGQERSVILISTVRSSQSFVQLDLDFNLGFLKNPKRFNVAVTRAKALLIIVGNPLLLGHDPDWKVFLEFCKENGGYTGCPFPAKLDLQQGQNLLQGLSKLSPSTSGPHSHDYLPQEREGEGGLSLQVEPEWRNEL
B6: NUFIP2 (protein, UniProt Q7Z417 1-695)
chain: MEEKPGQPQPQHHHSHHHPHHHPQQQQQQPHHHHHYYFYNHSHNHHHHHHHQQPHQYLQHGAEGSPKAQPKPLKHEQKHTLQQHQETPKKKTGYGELNGNAGEREISLKNLSSDEATNPISRVLNGNQQVVDTSLKQTVKANTFGKAGIKTKNFIQKNSMDKKNGKSYENKSGENQSVDKSDTIPIPNGVVTNNSGYITNGYMGKGADNDGSGSESGYTTPKKRKARRNSAKGCENLNIVQDKIMQQETSVPTLKQGLETFKPDYSEQKGNRVDGSKPIWKYETGPGGTSRGKPAVGDMLRKSSDSKPGVSSKKFDDRPKGKHASAVASKEDSWTLFKPPPVFPVDNSSAKIVPKISYASKVKENLNKTIQNSSVSPTSSSSSSSSTGETQTQSSSRLSQVPMSALKSVTSANFSNGPVLAGTDGNVYPPGGQPLLTTAANTLTPISSGTDSVLQDMSLTSAAVEQIKTSLFIYPSNMQTMLLSTAQVDLPSQTDQQNLGDIFQNQWGLSFINEPSAGPETVTGKSSEHKVMEVTFQGEYPATLVSQGAEIIPSGTEHPVFPKAYELEKRTSPQVLGSILKSGTTSESGALSLEPSHIGDLQKADTSSQGALVFLSKDYEIESQNPLASPTNTLLGSAKEQRYQRGLERNDSWGSFDLRAAIVYHTKEMESIWNLQKQDPKRIITYNEAMDSPDQ
B7: ATXN2L (protein, UniProt Q8WWM7 1-1075)
chain: MLKPQPLQQPSQPQQPPPTQQAVARRPPGGTSPPNGGLPGPLATSAAPPGPPAAASPCLGPVAAAGSGLRRGAEGILAPQPPPPQQHQERPGAAAIGSARGQSTGKGPPQSPVFEGVYNNSRMLHFLTAVVGSTCDVKVKNGTTYEGIFKTLSSKFELAVDAVHRKASEPAGGPRREDIVDTMVFKPSDVMLVHFRNVDFNYATKDKFTDSAIAMNSKVNGEHKEKVLQRWEGGDSNSDDYDLESDMSNGWDPNEMFKFNEENYGVKTTYDSSLSSYTVPLEKDNSEEFRQRELRAAQLAREIESSPQYRLRIAMENDDGRTEEEKHSAVQRQGSGRESPSLASREGKYIPLPQRVREGPRGGVRCSSSRGGRPGLSSLPPRGPHHLDNSSPGPGSEARGINGGPSRMSPKAQRPLRGAKTLSSPSNRPSGETSVPPPPAVGRMYPPRSPKSAAPAPISASCPEPPIGSAVPTSSASIPVTSSVSDPGVGSISPASPKISLAPTDVKELSTKEPGRTLEPQELARIAGKVPGLQNEQKRFQLEELRKFGAQFKLQPSSSPENSLDPFPPRILKEEPKGKEKEVDGLLTSEPMGSPVSSKTESVSDKEDKPPLAPSGGTEGPEQPPPPCPSQTGSPPVGLIKGEDKDEGPVAEQVKKSTLNPNAKEFNPTKPLLSVNKSTSTPTSPGPRTHSTPSIPVLTAGQSGLYSPQYISYIPQIHMGPAVQAPQMYPYPVSNSVPGQQGKYRGAKGSLPPQRSDQHQPASAPPMMQAAAAAGPPLVAATPYSSYIPYNPQQFPGQPAMMQPMAHYPSQPVFAPMLQSNPRMLTSGSHPQAIVSSSTPQYPSAEQPTPQALYATVHQSYPHHATQLHAHQPQPATTPTGSQPQSQHAAPSPVQHQAGQAPHLGSGQPQQNLYHPGALTGTPPSLPPGPSAQSPQSSFPQPAAVYAIHHQQLPHGFTNMAHVTQAHVQTGITAAPPPHPGAPHPPQVMLLHPPQSHGGPPQGAVPQSGVPALSASTPSPYPYIGHPQGEQPGQAPGFPGGADDRIREFSLAGGIWHGRAEGLQVGQDARVLGGE

Molecular target: DDX6 helicase (human (endogenous in hASCs)) (UniProt P26196)
Assay: affinity purification with mass spectrometry; endogenous DDX6 immunoprecipitated with anti-DDX6 (MBL PD009) and protein A Dynabeads after precleaning, TRIzol extraction; hASCs not induced or induced to adipogenesis or osteogenesis for 24 h; lysis buffer with 1% NP-40 and RNase inhibitor; washes up to 500 mM NaCl and 2 M urea; proteins found on precleaning beads removed; two donors, two technical replicates

| binding | Molecule |
| --- | --- |
| binds | STAU1 (from UniProt O95793 1-577) |
| binds | LSM14A (from UniProt Q8ND56 1-463) |
| binds | MYH9 (from UniProt P35579 1-1960) |
| binds | FAM98A (from UniProt Q8NCA5 1-518) |
| binds | PRUNE2 (from UniProt Q8WUY3 1-3088) |
| binds | IGF2BP2 (from UniProt Q9Y6M1 1-599) |
| binds | PABPC1 (from UniProt P11940 1-636) |
| binds | ELAVL1 (from UniProt Q15717 1-326) |
| binds | MVP (from UniProt Q14764 1-893) |
| binds | LSM14B (from UniProt Q9BX40 1-385) |
| binds | B1 |
| binds | B2 |
| binds | B3 |
| binds | B4 |
| binds | B5 |
| binds | B6 |
| binds | B7 |
